± gives the standard deviation of the averaged measurements. Most values lie at the level of the controls, where differences are scatter.
Columns and labels:
Test in all cases: level (log10 ratio to DMSO vehicle control); higher = higher biomarker level / cell amount than vehicle control
[1] = compound: C=C(C)C(=O)OCCC(F)(F)C(F)(F)C(F)(F)C(F)(F)C(F)(F)C(F)(F)F [6:2 Fluorotelomer methacrylate] (in DMSO); conditions: 2200 nM
Description: (§1)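 BioMAP Diversity Plus panel of 12 human primary cell co-culture systems (3C, 4H, LPS, SAg, BT, BF4T, BE3C, CASM3C, HDF3CGF, KF3CT, MyoF, Mphg). Compounds were added 1 h before stimulation and left for 24 h (MyoF 48 h; BT 72 h for soluble read-outs or 6 d for IgG). Biomarkers were read by ELISA, cytotoxicity by SRB, PBMC viability and proliferation by Alamar Blue. Each well value was divided by the mean of 8 DMSO control wells on the same plate and log10 transformed; duplicate blinded samples were tested at 4 concentrations.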

[2] = compound: OCC(F)(F)C(F)(F)C(F)(F)C(F)F [1H,1H,5H-Perfluoropentanol] (in DMSO); conditions: 2200 nM
Description: as §1

[3] = compound: CNS(=O)(=O)C(F)(F)C(F)(F)C(F)(F)C(F)(F)C(F)(F)C(F)(F)C(F)(F)C(F)(F)F [N-Methylperfluorooctanesulfonamide] (in DMSO); conditions: 2200 nM
Description: as §1

[4] = compound: O=C(O)CCC(F)(F)C(F)(F)C(F)(F)F [3:3 Fluorotelomer carboxylic acid] (in DMSO); conditions: 2200 nM
Description: as §1

[5] = compound: FC(F)(F)C(F)(F)CNCC(F)(F)C(F)(F)F [Bis(1H,1H-perfluoropropyl)amine] (in DMSO); conditions: 2200 nM
Description: as §1

[6] = compound: FC(F)(F)COC(OCC(F)(F)F)OCC(F)(F)F [tris(Trifluoroethoxy)methane] (in DMSO); conditions: 2200 nM
Description: as §1

[7] = compound: O=C(O)C(F)(OC(F)(F)C(F)(OC(F)(F)C(F)(OC(F)(F)C(F)(F)C(F)(F)F)C(F)(F)F)C(F)(F)F)C(F)(F)F [Perfluoro-(2,5,8-trimethyl-3,6,9-trioxadodecanoic)acid] (in DMSO); conditions: 370 nM
Description: as §1

[8] = compound: OCCCC(F)(F)C(F)(F)C(F)(F)C(F)(F)C(F)(F)C(F)(F)C(F)(F)C(F)(F)F [3-(Perfluorooctyl)propanol] (in DMSO); conditions: 2200 nM
Description: as §1

[9] = compound: O=S(=O)(O)C(F)(F)C(F)(F)C(F)(F)C(F)(F)F [Perfluorobutanesulfonic acid] (in DMSO)
Description: as §1

[10] = compound: O=C(O)C(F)(F)C(F)(F)C(F)(F)OC(F)(C(F)(F)F)C(F)(F)F [Perfluoro-4-isopropoxybutanoic acid] (in DMSO); conditions: 2200 nM
Description: as §1

Perfluorohexanoic acid = compound: O=C(O)C(F)(F)C(F)(F)C(F)(F)C(F)(F)C(F)(F)F [Perfluorohexanoic acid] (in DMSO)
Description: as §1

[11] = compound: O=C(O)C(F)(OC(F)(F)C(F)(F)C(F)(F)F)C(F)(F)F [Ammonium perfluoro-2-methyl-3-oxahexanoate] (in Water)
Description: as §1

Hexafluoroglutaric acid = compound: O=C(O)C(F)(F)C(F)(F)C(F)(F)C(=O)O [Hexafluoroglutaric acid] (in DMSO)
Description: as §1

[12] = compound: FC(F)(F)C(F)(F)C(F)(F)C(F)(F)CCI [1H,1H,2H,2H-Perfluorohexyl iodide] (in DMSO); conditions: 2200 nM
Description: as §1

[13] = compound: OCC(F)(F)C(F)(F)C(F)(F)C(F)(F)C(F)(F)C(F)(F)F [6:1 Fluorotelomer alcohol] (in DMSO); conditions: 2200 nM
Description: as §1

[14] = compound: OCC(F)(F)OC(F)(F)C(F)(F)OC(F)(F)CO [1H,1H,8H,8H-Perfluoro-3,6-dioxaoctane-1,8-diol] (in DMSO); conditions: 2200 nM
Description: as §1

[15] = compound: OCC(F)(F)C(F)(F)C(F)(F)C(F)(F)C(F)(F)C(F)(F)CO [1H,1H,8H,8H-Perfluorooctane-1,8-diol] (in DMSO); conditions: 2200 nM
Description: as §1

BT:Secreted IgG
level (log10) [1]: 0.034 ± 0.014
level (log10) [2]: 0.044 ± 0.02
level (log10) [3]: 0.009 ± 0.014
level (log10) [4]: -0.0055 ± 0.00071
level (log10) [5]: 0.025 ± 0.013
level (log10) [6]: 0.028 ± 0.047
level (log10) [7]: 0.0105 ± 0.069
level (log10) [8]: 0.025 ± 0.0085
level (log10) ([9]; 2200 nM): 0.002 ± 0.054
level (log10) ([9]; 6700 nM): 0.0005 ± 0.00071
level (log10) ([9]; 20000 nM): -0.0055 ± 0.023
level (log10) ([9]; 60000 nM): -0.016 ± 0.052
level (log10) [10]: 0.015 ± 0.023
level (log10) (Perfluorohexanoic acid; 2200 nM): 0.0015 ± 0.019
level (log10) (Perfluorohexanoic acid; 6700 nM): 0.0085 ± 0.00071
level (log10) (Perfluorohexanoic acid; 20000 nM): 0.0155 ± 0.03
level (log10) (Perfluorohexanoic acid; 60000 nM): -0.023 ± 0.061
level (log10) ([11]; 2200 nM): -0.141 ± 0.016
level (log10) ([11]; 6700 nM): -0.12 ± 0.07
level (log10) ([11]; 20000 nM): -0.113 ± 0.059
level (log10) ([11]; 60000 nM): -0.156
level (log10) (Hexafluoroglutaric acid; 2200 nM): -0.029 ± 0.027
level (log10) (Hexafluoroglutaric acid; 6700 nM): -0.026 ± 0.04
level (log10) (Hexafluoroglutaric acid; 20000 nM): 0.055 ± 0.013
level (log10) (Hexafluoroglutaric acid; 60000 nM): 0.019 ± 0.048
level (log10) [12]: -0.0255 ± 0.025
level (log10) [13]: -0.001 ± 0.059
level (log10) [14]: 0.035 ± 0.0085
level (log10) [15]: 0.0225 ± 0.036

BT:sIL-2
level (log10) [1]: 0.0365 ± 0.037
level (log10) [2]: 0.0915 ± 0.0035
level (log10) [3]: 0.0065 ± 0.047
level (log10) [4]: 0.005 ± 0.061
level (log10) [5]: 0.025 ± 0.076
level (log10) [6]: 0.0515 ± 0.081
level (log10) [7]: 0.0165 ± 0.084
level (log10) [8]: -0.017 ± 0.092
level (log10) ([9]; 2200 nM): -0.0355 ± 0.04
level (log10) ([9]; 6700 nM): -0.0155 ± 0.079
level (log10) ([9]; 20000 nM): -0.059 ± 0.044
level (log10) ([9]; 60000 nM): -0.025 ± 0.04
level (log10) [10]: 0.015 ± 0.078
level (log10) (Perfluorohexanoic acid; 2200 nM): -0.0275 ± 0.059
level (log10) (Perfluorohexanoic acid; 6700 nM): -0.0225 ± 0.0064
level (log10) (Perfluorohexanoic acid; 20000 nM): 0.0345 ± 0.098
level (log10) (Perfluorohexanoic acid; 60000 nM): 0.0275 ± 0.074
level (log10) ([11]; 2200 nM): -0.115 ± 0.068
level (log10) ([11]; 6700 nM): -0.093 ± 0.0099
level (log10) ([11]; 20000 nM): -0.0525 ± 0.015
level (log10) ([11]; 60000 nM): -0.124 ± 0.028
level (log10) (Hexafluoroglutaric acid; 2200 nM): 0.0245 ± 0.1
level (log10) (Hexafluoroglutaric acid; 6700 nM): -0.006 ± 0.11
level (log10) (Hexafluoroglutaric acid; 20000 nM): 0.0205 ± 0.039
level (log10) (Hexafluoroglutaric acid; 60000 nM): 0.061 ± 0.013
level (log10) [12]: 0.0715 ± 0.069
level (log10) [13]: -0.0535 ± 0.12
level (log10) [14]: 0.0295 ± 0.026
level (log10) [15]: -0.025 ± 0.018

BT:sIL-6
level (log10) [1]: 0.0025 ± 0.047
level (log10) [2]: 0.009 ± 0.055
level (log10) [3]: 0.0035 ± 0.03
level (log10) [4]: 0.017 ± 0.016
level (log10) [5]: 0.0245 ± 0.011
level (log10) [6]: -0.0005 ± 0.039
level (log10) [7]: -0.0385 ± 0.079
level (log10) [8]: 0.0475 ± 0.06
level (log10) ([9]; 2200 nM): -0.0185 ± 0.0021
level (log10) ([9]; 6700 nM): -0.035 ± 0.061
level (log10) ([9]; 20000 nM): 0.004 ± 0.067
level (log10) ([9]; 60000 nM): 0.012 ± 0.02
level (log10) [10]: 0.027 ± 0.025
level (log10) (Perfluorohexanoic acid; 2200 nM): -0.0255 ± 0.052
level (log10) (Perfluorohexanoic acid; 6700 nM): -0.0375 ± 0.079
level (log10) (Perfluorohexanoic acid; 20000 nM): 0.013 ± 0.062
level (log10) (Perfluorohexanoic acid; 60000 nM): -0.037 ± 0.021
level (log10) ([11]; 2200 nM): -0.0995 ± 0.083
level (log10) ([11]; 6700 nM): -0.0915 ± 0.0035
level (log10) ([11]; 20000 nM): -0.0905 ± 0.021
level (log10) ([11]; 60000 nM): -0.151 ± 0.014
level (log10) (Hexafluoroglutaric acid; 2200 nM): 0.023 ± 0.02
level (log10) (Hexafluoroglutaric acid; 6700 nM): -0.0105 ± 0.11
level (log10) (Hexafluoroglutaric acid; 20000 nM): 0.0275 ± 0.021
level (log10) (Hexafluoroglutaric acid; 60000 nM): -0.0155 ± 0.088
level (log10) [12]: 0.053 ± 0.024
level (log10) [13]: -0.044 ± 0.062
level (log10) [14]: 0.003 ± 0.11
level (log10) [15]: -0.0075 ± 0.021

BT:sIL-17A
level (log10) [1]: -0.036 ± 0.1
level (log10) [2]: -0.025 ± 0.26
level (log10) [3]: 0.06 ± 0.016
level (log10) [4]: -0.0945 ± 0.08
level (log10) [5]: -0.056 ± 0.19
level (log10) [6]: -0.166 ± 0.016
level (log10) [7]: -0.0845 ± 0.032
level (log10) [8]: -0.041 ± 0.0042
level (log10) ([9]; 2200 nM): -0.0075 ± 0.11
level (log10) ([9]; 6700 nM): -0.0215 ± 0.14
level (log10) ([9]; 20000 nM): 0.157 ± 0.016
level (log10) ([9]; 60000 nM): 0.021 ± 0.2
level (log10) [10]: 0.0025 ± 0.016
level (log10) (Perfluorohexanoic acid; 2200 nM): -0.201 ± 0.097
level (log10) (Perfluorohexanoic acid; 6700 nM): 0.009 ± 0.22
level (log10) (Perfluorohexanoic acid; 20000 nM): 0.038 ± 0.075
level (log10) (Perfluorohexanoic acid; 60000 nM): -0.086 ± 0.068
level (log10) ([11]; 2200 nM): -0.232 ± 0.15
level (log10) ([11]; 6700 nM): 0.001 ± 0.02
level (log10) ([11]; 20000 nM): 0.036 ± 0.037
level (log10) ([11]; 60000 nM): -0.174 ± 0.096
level (log10) (Hexafluoroglutaric acid; 2200 nM): 0.035 ± 0.25
level (log10) (Hexafluoroglutaric acid; 6700 nM): 0.02 ± 0.073
level (log10) (Hexafluoroglutaric acid; 20000 nM): -0.0205 ± 0.21
level (log10) (Hexafluoroglutaric acid; 60000 nM): -0.0585 ± 0.12
level (log10) [12]: -0.023 ± 0.065
level (log10) [13]: -0.233 ± 0.033
level (log10) [14]: 0.06 ± 0.17
level (log10) [15]: -0.04 ± 0.076
